At least one structure is not confirmed: it was looked up by name or label, or the drawing left a doubt.
Columns and labels:
Type in all cases: cell-based, human
[1] = test system: NK-92-mediated cytolysis of A549 cells; test: Inhibition of NK-92-mediated cytolysis of target cells by signaling pathway inhibitors (RT-CES)
Procedure: (FIG. 31A) A549 cells were seeded in the chambers of E-PLATES. Twenty four hours after seeding NK-cells at a density of 16:1 (E/T ratio) were pre-incubated with the different concentrations of the MEK inhibitor PD 98059 for thirty minutes and then added to A549 cells at the indicated time point (arrow). The viability of A549 cells were continually monitored using the RT-CES system. (FIG. 31B) The extent of NK-92 mediated cytolystic activity in the presence of MEK inhibitor was calculated at the indicated times post-NK addition as described in materials and methods section. (FIG. 31C) The effect of PI3 Kinase inhibitor Wortmannin on NK-92 mediated cytolysis of A549 cells. The cells were treated with the inhibitor as described in (FIG. 31A). (FIG. 31D) Percent cytolytic activity of NK-92 cells was calculated at the end of the experiment described in (FIG. 31C).
Cytolytic analysis. Target cells were seeded into the chambers of either 16-chamber or 96-chamber E-plate in 100 μL of media. Cell growth was dynamically monitored using the RT-CES system for a period of 24-34 hours, depending on the experiment until they reached log growth phase and formed a monolayer. […]
(§1) Inhibition of NK-mediated cytolysis of target cells by agents which block the signaling pathways leading to cytotoxicity. […] We calculated percent inhibition of cytolysis for both inhibitors at different time points after NK addition. […]

[2] = test system: A549 cells; test: Dynamic monitoring of drug interaction with target cells by RT-CES
Procedure: Drug Treatment and Cytotoxicity Assessment. […] The indicated cell numbers were seeded per chamber of ACEA's 16X or 96X E-Plate (cartridge for monitoring cell-substrate impedance) in 100 μL final volume.
In order to observe the kinetics of drug interaction with target cells, A549 non-small lung cancer cells were seeded in ACEA 96X E-Plate™ and continuously monitored until the cells reached the log growth phase at which point different concentrations of paclitaxel were added to the cells at the indicated final concentration. […] While it remains to be determined if this phenomenon is due to metabolism and inactivation of paclitaxel or due to the emergence of paclitaxel-resistant subpopulation, this experiment clearly exemplifies the tremendous advantage of real-time measurement which is offered by the RT-CES system and allows the user to the opportunity to observe and assess the entire history of drug interaction with the target cells which provides further information in addition to cell viability or cytotoxicity. The phenomenon observed in FIG. 20A would've been easily missed by traditional single-point assays such as MTT. […]
as §1

[3] = test system: A549 cells; test: Cell cycle analysis by flow cytometry; details: A549 cells on tissue culture dish; 100 μM

Row | SMILES | inhibition of NK-92-mediated cytolysis ([1]; NK-92 pre-incubated with inhibitor, then added to A549 target cells) | time dependence of percent inhibition of cytolysis ([1]; different time points after NK addition) | effect of inhibitor alone on target cell baseline ([2]; A549 target cells incubated with inhibitor alone, no NK cells) | cell cycle effect by flow cytometry [3] | trace of the Cell Index recordings ([2]; exponentially growing A549 cells, 100 μM)
1 | COC[C@H]1OC(=O)c2coc3c2[C@@]1(C)C1=C(C3=O)[C@@H]2CCC(=O)[C@@]2(C)C[C@H]1OC(C)=O [Wortmannin] | dose-dependently inhibited NK-92-mediated cytolysis of A549 cells | clearly depends on the time point at which the analysis is performed | minimal effect on the baseline |  | 
2 | Cn1cnc2c(NCc3ccccc3)nc(NCCO)nc21 [Olomoucine] |  |  |  | induces cell cycle arrest at the G2→M transition | level off and remain in a steady state

Source: patent publication US20210364494A1, “CELL-SUBSTRATE IMPEDANCE MONITORING OF CANCER CELLS OF DIFFERENT LINEAGE, ORIGIN, OR STAGE” (ACEA BIOSCIENCES, INC., priority 2017, published 2021)
